One data set relates to U87 glioblastoma cells. In words: Intracellular localization of DOX-derived fluorescence. The settings on record: DOX 20 μM 2 h, CON1 and CON2 2, 5, 10 μM 72 h. It is filed as cell-based, human.
A further data set has as its system U87 cells. The experiment in a line: Transmission electron microscopy of cell import. To be noted: 5 μM, 24 h. It counts as cell-based, human.

Entries after “also recorded” stand apart in the source; their conditions may differ.

In the case of `COc1cccc2c1C(=O)c1c(O)c3c(c(O)c1C2=O)C[C@@](O)(C(=O)CO)C[C@@H]3O[C@H]1C[C@H](N)[C@H](O)[C@H](C)O1` [DOX, doxorubicin], the “localization of DOX-derived fluorescence” value in the data set with U87 glioblastoma cells was “inside the nucleus; also recorded: fluorescence in the nucleus”.

For the compound “N1-((2S,3S,4S,6R)-3-hydroxy-2-methyl-6-(((1S,3S)-3,5,12-trihydroxy-3-(2-hydroxyacetyl)-10-methoxy-6,11-dioxo-1,2,3,4,6,11-hexahydrotetracen-1-yl)oxy)tetrahydro-2H-pyran-4-yl)-N4-(6-((4-((R,E)-3-hydroxy-5-((1R,2R,4aS,8aS)-2-hydroxy-2,5,5,8a-tetramethyldecahydronaphthalen-1-yl)-3-methylpent-1-en-1-yl)benzyl)amino)hexyl) succinamide [CON2]”, the “localization of DOX-derived fluorescence” value in the data set on U87 glioblastoma cells is reported as “near the nuclear membrane; also recorded: perinuclear fluorescence”. Moreover, the “cellular import (TEM)” value in the data set with U87 cells was “can penetrate the cancer cells; also recorded: found to enter into the U87 cells”.

With “N1-((25,3S,4S,6R)-3-hydroxy-2-methyl-6-(((1S,3S)-3,5,12-trihydroxy-3-(2-hydroxyacetyl)-10-methoxy-6,11-dioxo-1,2,3,4,6,11-hexahydrotetracen-1-yl)oxy)tetrahydro-2H-pyran-4-yl)-N4-(3-((4-((R,E)-3-hydroxy-5-((1R,2R,4aS,8aS)-2-hydroxy-2,5,5,8a-tetramethyldecahydronaphthalen-1-yl)-3-methylpent-1-en-1-yl)benzyl)amino)propyl) succinamide [CON1]”, in the data set with U87 glioblastoma cells, the “localization of DOX-derived fluorescence” value is listed as “near the nuclear membrane; also recorded: perinuclear fluorescence”. Further, in the data set with U87 cells, the “cellular import (TEM)” value is listed as “can penetrate the cancer cells; also recorded: found to enter into the U87 cells”.

These data come from US20260174860A1, “HYBRID COMPOUNDS OF SCLAREOL AND DOXORUBICIN, THEIR SYNTHESIS AND APPLICATION” (INSTITUTE FOR BIOLOGICAL RESEARCH "SINISA STANKOVIC" - …, priority 2023, published 2026).
